Where “and” joins values, the source holds several entries; their conditions need not be identical. Equal entries are not always repeated. This is one part of the list. Shown are side measurements of this screen, not its main read-out; they come without a call. Compounds called inactive in the main read-out are mostly missing here. The note in brackets gives the kind of curve behind each potency; many fits are weak.
Experiment: qHTS Assay for Lipid Storage Modulators in Drosophila S3 Cells;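 as to cell number change: cells counted by Cell Tracker Red CMTPX staining in the red channel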
Conditions: BODIPY lipid droplet fluorescence, 18-24 h; for cell number change: measured here: cell count max response, cells fed with added oleic acid
Procedure, shortened: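 Laser-scanning cytometry quantifies lipid droplet accumulation (500–530 nm total intensity; droplet/cell object ratio) in oleic acid-fed (400 uM added) Drosophila S3 cells treated with a concentration series. 20 uM Triacsin C defined 100% inhibition.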

[1] = measured here: lipid fluorescence (Fed channel) AC50, cells fed with added oleic acid
[2] = measured here: cell number channel AC50, cells fed with added oleic acid

Compound | cell number change | AC50 [1] | AC50 [2]
CNS(=O)(=O)c1cc(Nc2ncnc3sccc23)ccc1C | -1.05% | 0.92 µM [rising, partial curve] | 
COc1ccc(NC(=O)CN2c3cccc4cccc(c34)S2(=O)=O)c(OC)c1 | 60.8% | 18.4 µM [rising, partial curve] | 0.291 µM [rising, full curve, poor fit]
CC(=O)N1CCN(C(=O)c2cc(S(=O)(=O)NCc3ccccc3)ccc2C)CC1 | 19.4% |  | 
COC(CNC(=O)c1cccnc1)OC | -6.94% | 0.517 µM [falling, full curve, poor fit] | 
CCOC(=O)c1c(-c2ccc(C)cc2)csc1NC(=O)C1CCCO1 (configuration not stated) |  | 0.731 µM [falling, partial curve, poor fit] | 
O=C(Cc1ccc2c(c1)OCCO2)Nc1cccc(S(=O)(=O)N2CCOCC2)c1 | -1.29% | 4.11 µM [falling, partial curve, poor fit] | 
O=C(CCC(=O)NNC(=O)Nc1cccc(Cl)c1)NCc1ccccc1 | 24.2% |  | 
COc1cc2[nH]c(=O)c(C(=O)NCCCN3CCCCC3)c(O)c2cc1OC | -67.4% |  | 29.1 µM [falling, single point]
CCN(C(=O)Nc1ccccc1OC)c1c(N)n(Cc2ccccc2)c(=O)[nH]c1=O | -46.8% |  | 
Cc1nnc(SCc2ccc(F)cc2)s1 |  | 1.16 µM [falling, single point] | 
Cn1c(CN2CCOCC2)nnc1SCC(=O)Nc1cccc(C(F)(F)F)c1 | 0.87% | 29.1 µM [rising, single point] | 
CCCCNC(=O)c1ccccc1NS(=O)(=O)c1ccc2c(c1)OCCO2 | 40.2% |  | 25.9 µM [rising, single point]
COc1ccc(N(CC(=O)Nc2ccccc2F)S(=O)(=O)c2ccc(OC)c(OC)c2)cc1 | -5.87% | 18.4 µM [falling, single point] | 
O=C(COC(=O)CNC(=O)C1CCCCC1)Nc1ccc(Br)cc1Br | 2.12% | 6.51 µM [falling, single point] | 6.51 µM [falling, single point]
Cc1ccc(-n2c(SCc3ccc([N+](=O)[O-])cc3)nc3ccccc3c2=O)cc1 | 1.52% |  | 1.64 µM [falling, partial curve]
O=C(CN1C(=O)c2ccccc2C1=O)N1CCOCC1 | -3.17% | 4.11 µM [falling, partial curve, poor fit] | 
CC(Sc1nnnn1-c1ccccc1)C(=O)NC1CCCC1 (configuration not stated) | 5.08% | 16.4 µM [falling, single point] | 
CCOC(=O)c1ccc(Oc2c(C)oc3c(CN4CCN(C)CC4)c(O)ccc3c2=O)cc1 | 0.563% | 0.731 µM [falling, full curve, poor fit] | 
CCCCCc1nnc(NC(=O)C2=COCCO2)s1 | -97.2% | 25.9 µM [falling, single point] | 23.1 µM [falling, single point]
Cc1csc(NC(=O)CSc2nnc(NC(=O)COc3ccccc3)s2)n1 |  |  | 0.58 µM [rising, single point]

Compound | cell number change | AC50 [1] | AC50 [2]
CC(C)C(Nc1ccc(C(F)(F)F)cc1[N+](=O)[O-])C(=O)O (configuration not stated) | -10.4% | 29.1 µM [falling, partial curve, poor fit] | 
Cc1ccc(N2CCN(C(=O)c3cccc([N+](=O)[O-])c3)CC2)cc1Cl | 28% | 35.5 µM [rising, single point] | 
Cc1csc(NC(=O)CSc2nnc(NC(=O)NC(C)(C)C)s2)n1 | -18.7% | 25.9 µM [falling, partial curve, poor fit] | 
Fc1ccc(CSc2nnc(Cc3sc(-c4ccccc4)nc3-c3ccccc3)o2)cc1 | 151% | 14.6 µM [rising, partial curve] | 14.6 µM [rising, partial curve]
COc1ccc(OC)c(NC(=O)c2c(NC(=O)c3ccco3)sc3c2CCC3)c1 | -41.1% | 29.1 µM [falling, single point] | 25.9 µM [falling, single point]
Cc1cc(C(c2ccc(O)cc2)c2cc(C)c(O)cc2C)c(C)cc1O | 10.9% | 29.1 µM [rising, single point] | 
COc1ccccc1Oc1ncnc2sccc12 | -42.3% | 29.1 µM [falling, single point] | 32.6 µM [falling, single point]
CCOC(=O)CNC(=O)c1ccc2c(c1)OCCO2 | -20.7% |  | 0.58 µM [falling, partial curve]
O=C(CCCCCNC(=O)N1CCn2c1nc1ccccc12)N[C@H](C(=O)O)c1ccccc1 | 25.4% | 0.0651 µM [rising, full curve, poor fit] | 
C=CCn1c(CNc2ccccc2)nnc1SCC(=O)N/N=C/c1ccccc1O | -15.8% | 29.1 µM [falling, single point] | 
COCCN=C1N[C@@H](c2ccc(Br)cc2)C(C(=O)OC)=C(C)N1Cc1ccccc1 | -19.8% and 15% | 29.1 µM [falling, single point] and 29.1 µM [rising, single point] | 
CSCC[C@H](NC(=O)OC(C)(C)C)c1nnc(SCc2cccc(F)c2)o1 | -40.4% |  | 29.1 µM [falling, single point]
CC(C)(C)NC(=O)C(c1ccco1)N(C(=O)c1csnn1)c1ccccc1 (configuration not stated) | 13.4% | 0.058 µM [falling, full curve, poor fit] | 
CCOC(=O)c1cc(-c2ccccc2)sc1NC(=O)C(C)N1C(=O)c2ccccc2C1=O (configuration not stated) | -14.1% |  | 
O=C(C[n+]1cc(-c2ccc(F)cc2)n2c1CCC2)N1c2ccccc2Sc2ccccc21 | 19.2% | 32.6 µM [falling, single point] | 
O=c1[nH]cnc2scc(-c3ccc(-c4ccccc4)cc3)c12 | 0.59% |  | 0.206 µM [rising, full curve, poor fit]
Cc1ccc(C(=O)N2CCC3(CC2)Oc2ccc(Cl)cc2C(=O)C32CC(c3ccccc3)=NO2)s1 (configuration not stated) | 11.8% | 11.6 µM [rising, single point] | 
CN(C[C@H](Cc1ccccc1)N(C[C@H](Cc1ccccc1)N(CC1(c2ccccc2)CC1)N=O)N=O)N=O | 18.9% | 0.731 µM [rising, single point] | 
COc1cc(C(C[N+](=O)[O-])c2c(C)cc3ccccn23)ccc1O (configuration not stated) |  | 0.82 µM [falling, full curve] | 
Cc1ccc(N2C(=O)[C@@H]3C(c4ccc(F)cc4)=NO[C@@H]3C2=O)cc1 | 7.37% |  | 

A draw from above in order of SMILES length, falling.
Compound | cell number change | AC50 [1] | AC50 [2]
CN(C[C@H](Cc1ccccc1)N(C[C@H](Cc1ccccc1)N(CC1(c2ccccc2)CC1)N=O)N=O)N=O | 18.9% | 0.731 µM [rising, single point] | 
Fc1ccc(CSc2nnc(Cc3sc(-c4ccccc4)nc3-c3ccccc3)o2)cc1 | 151% | 14.6 µM [rising, partial curve] | 14.6 µM [rising, partial curve]
COc1ccccc1Oc1ncnc2sccc12 | -42.3% | 29.1 µM [falling, single point] | 32.6 µM [falling, single point]

Additional results

Compound | cell number change | AC50 [1] | AC50 [2]
O=C(O)CSCC(=O)Nc1ccc(S(=O)(=O)N2CCCCC2)cc1 | -31.4% | 23.1 µM [falling, single point] | 4.61 µM [falling, full curve, poor fit]
C/C(NC1CCCCC1)=C(/C#N)C(=O)NCCN1CCOCC1 | 1.09% |  | 
O=C(CSc1ncn[nH]1)Nc1cccc2ccccc12 | 10.5% | 0.411 µM [rising, single point] | 0.366 µM [rising, partial curve, poor fit]
Cc1ccccc1CN(c1ccc(C(=O)N2CCCC2)cc1)S(C)(=O)=O | 71.1% | 18.4 µM [rising, partial curve] | 20.6 µM [rising, single point]
CCOC(=O)c1c(NC(=O)COC(=O)Cn2cnc3ccccc32)sc2c1CCC(C)C2 (configuration not stated) |  | 6.51 µM [rising, single point] | 
CSc1nnc2c(n1)OC(c1cn(C)c3ccccc13)N(C(C)=O)c1ccccc1-2 (configuration not stated) | 13.9% | 23.1 µM [falling, partial curve] | 
Cc1cc(OCC(=O)N[C@@H](Cc2c[nH]c3ccccc23)C(=O)O)c2c(C)c(C)c(=O)oc2c1 | 12.6% | 6.51 µM [rising, partial curve, poor fit] | 
CCn1cc(C2=NOC(C(=O)Nc3cc(OC)c(Cl)cc3OC)C2)c(C)n1 (configuration not stated) | -19.6% | 2.59 µM [falling, partial curve] | 
CC(C)(C)CC(=O)Nc1cc2c3c(c1)CCC(=O)N3CCC2 | -5.97% |  | 
CCn1cc([N+](=O)[O-])c(C(=O)NCc2ccc(Cl)cc2)n1 | 18.4% |  | 
O=C(CC1C(=O)NCCN1Cc1cccc(Oc2ccccc2)c1)NCCCn1cccn1 (configuration not stated) | 27.1% | 32.6 µM [rising, partial curve, poor fit] | 
O=C(c1ccco1)N1CCN(S(=O)(=O)c2cccc(C(F)(F)F)c2)CC1 | 2.78% |  | 
CCN1CCN(C(=O)CS(=O)Cc2nc(-c3ccc(OC)cc3)oc2C)CC1 (configuration not stated) | 1.31% |  | 
COc1cc2[nH]c3ccccc3c2cc1C | -48.9% | 1.84 µM [falling, partial curve] | 18.4 µM [falling, single point]
CC(NC(=O)c1ccccc1Cl)C(=O)Nc1ccc2c(c1)OCO2 (configuration not stated) | 43% |  | 13 µM [rising, partial curve]
Cn1c(=O)n(/N=C/c2ccccc2)c2ccccc21 | -5.55% | 0.103 µM [falling, full curve, poor fit] | 
CC1=NN(C(=O)Cn2nc([N+](=O)[O-])cc2C)C(O)(C(F)(F)F)C1 (configuration not stated) | -60.8% | 1.84 µM [falling, single point] | 16.4 µM [falling, partial curve, poor fit]
CCCOc1ccc2ccccc2c1/C=N/n1c(C)nnc1-n1nc(C)cc1C | 13.8% |  | 
COc1cc2[nH]c(C(=O)Nc3ccc4c(c3)OCCO4)cc2c(OC)c1OC | 19.5% |  | 
